Reference: PMC9018773
Results are given in words; binding and its absence hold for the method and conditions named. In cells and extracts the contact can be indirect. Some binding calls cover weakened binding; strength is not graded here.

Sequences of proteins named here, by UniProt entry; tags and fusion partners are left off.
UniProt Q62120: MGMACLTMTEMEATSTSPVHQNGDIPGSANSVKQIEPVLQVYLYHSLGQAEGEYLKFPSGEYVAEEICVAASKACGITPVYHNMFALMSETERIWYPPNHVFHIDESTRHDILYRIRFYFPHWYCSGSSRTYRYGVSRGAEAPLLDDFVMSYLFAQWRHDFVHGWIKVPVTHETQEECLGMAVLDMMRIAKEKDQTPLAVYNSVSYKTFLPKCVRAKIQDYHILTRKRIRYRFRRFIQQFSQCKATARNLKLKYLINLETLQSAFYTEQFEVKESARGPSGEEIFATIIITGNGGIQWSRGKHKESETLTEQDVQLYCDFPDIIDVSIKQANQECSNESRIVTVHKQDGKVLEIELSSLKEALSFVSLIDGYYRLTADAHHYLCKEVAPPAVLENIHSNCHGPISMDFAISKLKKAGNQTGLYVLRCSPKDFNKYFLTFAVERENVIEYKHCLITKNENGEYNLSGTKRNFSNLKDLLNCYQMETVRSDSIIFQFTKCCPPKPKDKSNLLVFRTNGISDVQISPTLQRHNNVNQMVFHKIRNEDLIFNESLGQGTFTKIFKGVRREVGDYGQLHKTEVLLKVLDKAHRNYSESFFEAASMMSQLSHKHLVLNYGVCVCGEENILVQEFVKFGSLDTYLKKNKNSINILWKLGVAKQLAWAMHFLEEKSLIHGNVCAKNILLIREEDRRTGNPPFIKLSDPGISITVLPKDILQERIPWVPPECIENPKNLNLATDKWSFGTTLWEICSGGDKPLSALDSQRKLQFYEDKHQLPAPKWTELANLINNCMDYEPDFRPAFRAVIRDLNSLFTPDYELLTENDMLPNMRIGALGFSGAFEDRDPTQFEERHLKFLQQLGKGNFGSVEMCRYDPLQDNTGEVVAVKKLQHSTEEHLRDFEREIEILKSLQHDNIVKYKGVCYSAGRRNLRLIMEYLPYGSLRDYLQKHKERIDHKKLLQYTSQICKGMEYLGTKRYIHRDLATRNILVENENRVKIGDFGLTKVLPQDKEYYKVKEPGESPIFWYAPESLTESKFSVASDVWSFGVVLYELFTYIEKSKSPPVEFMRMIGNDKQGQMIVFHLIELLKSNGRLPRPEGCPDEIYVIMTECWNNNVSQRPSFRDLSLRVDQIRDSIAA

T1: density regulated re-initiation and release factor (DENR) (UniProt Q9CQJ6)
T1 sequence: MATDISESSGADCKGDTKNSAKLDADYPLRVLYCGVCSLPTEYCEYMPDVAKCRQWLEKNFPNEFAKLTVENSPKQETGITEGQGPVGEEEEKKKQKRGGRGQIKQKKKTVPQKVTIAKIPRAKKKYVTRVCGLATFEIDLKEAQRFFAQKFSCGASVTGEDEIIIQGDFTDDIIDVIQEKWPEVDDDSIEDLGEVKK

B1: Multiple Copies In T-Cell Lymphoma-1 (MCTS1) (protein, UniProt Q9DB27 1-181)
chain: MFKKFDEKENVSNCIQLKTSVIKGIKNQLLEQFPGIEPWLNQIMPKKDPVKIVRCHEHIEILTVNGELLFFRQREGPFYPTLRLLHKYPFILPHQQVDKGAIKFVLSGANIMCPGLTSPGAKLYPAAVDTIVAIMAEGKQHALCVGVMKMSAEDIEKVNKGIGIENIHYLNDGLWHMKTYK
B2: density regulated re-initiation and release factor (DENR) (protein, UniProt Q9CQJ6 1-198)
chain: T1 sequence

Tests used:
[1] = target: T1, density regulated re-initiation and release factor (DENR); assay: co-IP; endogenous proteins; 10 million cells lysed in NP40 buffer; supernatants incubated with rabbit anti-DENR, rabbit anti-JAK2 or rabbit normal IgG for 4 h at 4 °C, protein A/G beads 2 h, five washes in NP40 buffer; detected by blot
[2] = target: Janus kinase 2 (JAK2) (UniProt Q62120); assay: as above

| Molecule | binding [1] | binding [2] |
| --- | --- | --- |
| Janus kinase 2 (JAK2) (from UniProt Q62120 1-1132) | no binding |  |
| B1 | binds |  |
| B2 |  | no binding |
